PubChem BioAssay AID1224826, NIAID – 2016
Aim: 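Knock-downs that raise or lower Tnf reporter signal after endotoxin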 (primary screen). Cells: RAW264.7 G9 macrophages from mouse bearing reporters for p65 (GFP) and the Tnf promoter (mCherry). Knock-down reagent: siRNA pool against mouse genes, 100 nM. Timing: 16 h of LPS stimulation, after 2 days of siRNA transfection. Challenge: bacterial lipopolysaccharide (Salmonella minnesota R595), 10 ng/ml. Measured: 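Imaged Tnf reporter mCherry in nuclei, minus background, normalised per plate to the median and expressed as robust z-scores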. Reading the numbers: Tnf reporter robust z-score: higher = stronger Tnf promoter reporter signal after LPS; Tnf reporter intensity: higher = stronger Tnf promoter reporter signal. Active means: 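a well counts as active at a score of -1.3 or below (Tlr4 knock-down control median) or above 3 (raised signal); controls and wells holding fewer than 50 cells are excluded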. Meaning of the calls: active = Tnf reporter clearly lowered or raised; inactive = no clear change in Tnf reporter.
Shown is one part, drawn at random, of about 17,000 reagents tested. Of all reagents, about 1,110 (6.6%) got an active call. 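Active means lowered or raised reporter signal; replicate intensities are raw and not normalised per plate.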

no.	gene	Tnf reporter robust z-score	fewer than 50 cells in well	Tnf reporter intensity, replicate 1	Tnf reporter intensity, replicate 2	Outcome
1	Tbc1d19	0.99	enough cells in well	229	79.1	inactive
2	Alg8	0.24	enough cells in well	166	256	inactive
3	Or52p2		fewer than 50 cells per well; well left out of calls	74.2	89.8	inactive
4	Thnsl1	0.13	enough cells in well	206	164	inactive
5	Gosr2	-0.39	enough cells in well	172	195	inactive
6	Arhgap26	0.94	enough cells in well	168	213	inactive
7	Agtpbp1	-0.76	enough cells in well	130	162	inactive
8	Specc1l		fewer than 50 cells per well; well left out of calls	88.4	73.6	inactive
9	Or13p4	-0.79	enough cells in well	113	102	inactive
10	Cyp2c37	-0.98	enough cells in well	142	151	inactive
11	Nmi	-0.3	enough cells in well	185	188	inactive
12	Pof1b	0.47	enough cells in well	134	166	inactive
13	Prdm13	0.13	enough cells in well	256	202	inactive
14	Metap1d	0.76	enough cells in well	200	217	inactive
15	Calcr	-0.14	enough cells in well	186	316	inactive
16	Or52r1		fewer than 50 cells per well; well left out of calls	0	44.2	inactive
17	C2cd4c		fewer than 50 cells per well; well left out of calls	0	92.5	inactive
18	Or5p6	-1.2	enough cells in well	186	20.8	inactive
19	Wnt16	1.53	enough cells in well	167	213	inactive
20	Sox18	0.02	enough cells in well	264	231	inactive
21	Amdhd2	-0.03	enough cells in well	154	158	inactive
22	Apoe	-1.3	enough cells in well	116	70.5	active
23	Mrfap1	-1.32	enough cells in well	104	100	active
24	Magea8	1.63	enough cells in well	287	233	inactive
25	Cfl2	-1.39	enough cells in well	84.3	197	active
26	Mrm1	0.23	enough cells in well	168	183	inactive
27	Rnmt	0.95	enough cells in well	467	231	inactive
28	Hycc1	-0.25	enough cells in well	197	88.5	inactive
29	Arsa	-0.3	enough cells in well	151	152	inactive
30	Cdk17	1.02	enough cells in well	256	127	inactive
31	Anxa9		fewer than 50 cells per well; well left out of calls	75.1	96.1	inactive
32	Tanc2	-0.46	enough cells in well	156	117	inactive
33	Ptprk	-0.14	enough cells in well	322	178	inactive
34	Pdzrn3	-1.67	enough cells in well	68.7	53.8	active
35	Ldlrad3	0.69	enough cells in well	185	229	inactive
36	Stk38l	-0.7	enough cells in well	136	109	inactive
37	Rspo2		fewer than 50 cells per well; well left out of calls	122	35	inactive
38	Frmd4a	-0.28	enough cells in well	207	69.4	inactive
39	Zfp646	-0.21	enough cells in well	183	159	inactive
40	Synm	0.3	enough cells in well	234	108	inactive
41	H2-M10.5	1.57	enough cells in well	402	232	inactive
42	Adcy2	0.01	enough cells in well	272	125	inactive
43	Ddx27	1.08	enough cells in well	266	212	inactive
44	Tlr8	-0.2	enough cells in well	204	133	inactive
45	Acacb	0.42	enough cells in well	191	168	inactive
46	Extl1	-0.49	enough cells in well	209	173	inactive
47	Clic4	0.05	enough cells in well	233	228	inactive
48	Msto1	0.29	enough cells in well	173	290	inactive
49	Col4a2	2.27	enough cells in well	440	361	inactive
50	Ap3m2	-0.74	enough cells in well	150	102	inactive
51	E4f1	0.75	enough cells in well	296	278	inactive
52	Or8b36	1.32	enough cells in well	143	169	inactive
53	Terf2	0.07	enough cells in well	254	127	inactive
54	Nfkbid	-0.33	enough cells in well	153	145	inactive
55	Ubqln2	3.52	enough cells in well	254	159	active
56	Nelfe	1.93	enough cells in well	222	201	inactive
57	Rln3	-0.92	enough cells in well	98.4	78	inactive
58	Aadat	0.06	enough cells in well	141	172	inactive

Targets listed so far whose target name begins with R or r:
gene	Tnf reporter robust z-score	fewer than 50 cells in well	Tnf reporter intensity, replicate 1	Tnf reporter intensity, replicate 2	Outcome
Rnmt	0.95	enough cells in well	467	231	inactive
Rspo2		fewer than 50 cells per well; well left out of calls	122	35	inactive
Rln3	-0.92	enough cells in well	98.4	78	inactive
